Results are given in words; binding and its absence hold for the method and conditions named. Binding seen in cells or lysates may run through a third protein. Binding calls can cover weak binding; strength is not graded here.
Target: T1, AXL (mouse (endogenous in lung tissue)) (UniProt Q00993)
T1 sequence: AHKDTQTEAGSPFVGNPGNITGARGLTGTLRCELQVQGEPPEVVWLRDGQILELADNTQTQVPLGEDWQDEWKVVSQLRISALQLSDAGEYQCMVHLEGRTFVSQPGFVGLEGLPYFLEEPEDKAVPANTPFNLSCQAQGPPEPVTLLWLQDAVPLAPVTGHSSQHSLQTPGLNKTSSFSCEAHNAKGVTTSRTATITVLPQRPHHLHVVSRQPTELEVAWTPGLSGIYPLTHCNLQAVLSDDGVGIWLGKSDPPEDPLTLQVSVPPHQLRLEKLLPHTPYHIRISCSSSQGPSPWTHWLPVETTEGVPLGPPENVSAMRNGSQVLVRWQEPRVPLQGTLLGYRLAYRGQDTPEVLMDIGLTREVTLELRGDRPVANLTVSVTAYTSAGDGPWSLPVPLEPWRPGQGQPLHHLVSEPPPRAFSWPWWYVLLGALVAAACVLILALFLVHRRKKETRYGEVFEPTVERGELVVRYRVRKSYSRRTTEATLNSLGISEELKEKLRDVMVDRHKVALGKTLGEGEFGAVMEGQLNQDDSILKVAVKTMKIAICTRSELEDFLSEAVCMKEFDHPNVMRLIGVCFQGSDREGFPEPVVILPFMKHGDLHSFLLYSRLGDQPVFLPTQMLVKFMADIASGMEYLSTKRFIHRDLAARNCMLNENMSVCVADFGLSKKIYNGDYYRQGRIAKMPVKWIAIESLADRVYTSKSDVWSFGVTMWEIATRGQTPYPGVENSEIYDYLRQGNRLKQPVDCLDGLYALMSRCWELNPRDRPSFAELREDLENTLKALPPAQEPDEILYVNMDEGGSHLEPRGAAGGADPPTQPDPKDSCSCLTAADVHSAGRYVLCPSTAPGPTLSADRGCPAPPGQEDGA
Experiment: co-IP; Lung tissue lysate (RIPA, protease inhibitors) from vehicle- or rPROS1-treated mice (2 μg/mouse/day for 4 days); precleared with Dynabeads protein G; anti-AXL antibody or IgG with Dynabeads protein G overnight at 4°C; immunoblots for Gab1, p85 and AXL

For “p85, a regulatory subunit of PI3K (mouse (endogenous in lung tissue))”, the binding was “binds”.
